Measurements: the supplement of paper PMC10849652
The list shows a part of the results.

The chains behind the UniProt entries cited, without tags or fusion partners. Where a name states a change or a piece, a line headed by the entry shows the natural chain unless it says otherwise.
UniProt P57737: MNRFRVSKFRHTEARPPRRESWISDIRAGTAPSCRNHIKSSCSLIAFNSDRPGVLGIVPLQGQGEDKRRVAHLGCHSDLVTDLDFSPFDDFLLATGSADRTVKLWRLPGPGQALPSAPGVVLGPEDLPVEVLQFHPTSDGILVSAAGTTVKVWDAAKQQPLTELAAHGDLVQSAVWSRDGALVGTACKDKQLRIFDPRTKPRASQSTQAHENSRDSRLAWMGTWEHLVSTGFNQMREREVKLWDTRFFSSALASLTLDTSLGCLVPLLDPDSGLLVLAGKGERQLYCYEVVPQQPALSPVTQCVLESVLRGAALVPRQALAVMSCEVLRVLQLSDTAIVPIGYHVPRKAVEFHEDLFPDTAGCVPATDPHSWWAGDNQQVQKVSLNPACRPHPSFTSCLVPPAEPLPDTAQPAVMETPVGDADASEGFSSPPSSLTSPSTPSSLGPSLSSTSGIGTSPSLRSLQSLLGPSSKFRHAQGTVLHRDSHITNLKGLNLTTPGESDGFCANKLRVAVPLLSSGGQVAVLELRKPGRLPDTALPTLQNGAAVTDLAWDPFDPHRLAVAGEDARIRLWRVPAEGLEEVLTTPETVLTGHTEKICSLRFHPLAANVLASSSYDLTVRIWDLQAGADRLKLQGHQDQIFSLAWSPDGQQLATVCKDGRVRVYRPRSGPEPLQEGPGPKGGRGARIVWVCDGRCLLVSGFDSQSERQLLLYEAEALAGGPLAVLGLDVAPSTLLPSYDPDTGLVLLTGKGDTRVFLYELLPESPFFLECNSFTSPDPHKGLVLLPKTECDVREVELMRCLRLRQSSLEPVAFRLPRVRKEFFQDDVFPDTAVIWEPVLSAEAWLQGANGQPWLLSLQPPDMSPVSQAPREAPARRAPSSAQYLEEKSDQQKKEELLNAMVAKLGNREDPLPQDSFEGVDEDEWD
UniProt Q6UXH1: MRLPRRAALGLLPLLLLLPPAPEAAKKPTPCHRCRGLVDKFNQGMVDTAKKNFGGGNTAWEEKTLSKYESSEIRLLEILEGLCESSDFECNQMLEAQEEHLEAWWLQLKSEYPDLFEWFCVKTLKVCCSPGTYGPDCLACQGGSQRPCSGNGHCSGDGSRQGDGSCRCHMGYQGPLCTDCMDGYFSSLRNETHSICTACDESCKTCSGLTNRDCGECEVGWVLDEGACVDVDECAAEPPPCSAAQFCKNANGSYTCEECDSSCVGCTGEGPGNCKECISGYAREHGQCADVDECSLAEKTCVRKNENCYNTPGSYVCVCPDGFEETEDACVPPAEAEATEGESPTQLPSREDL
UniProt Q9UBL6: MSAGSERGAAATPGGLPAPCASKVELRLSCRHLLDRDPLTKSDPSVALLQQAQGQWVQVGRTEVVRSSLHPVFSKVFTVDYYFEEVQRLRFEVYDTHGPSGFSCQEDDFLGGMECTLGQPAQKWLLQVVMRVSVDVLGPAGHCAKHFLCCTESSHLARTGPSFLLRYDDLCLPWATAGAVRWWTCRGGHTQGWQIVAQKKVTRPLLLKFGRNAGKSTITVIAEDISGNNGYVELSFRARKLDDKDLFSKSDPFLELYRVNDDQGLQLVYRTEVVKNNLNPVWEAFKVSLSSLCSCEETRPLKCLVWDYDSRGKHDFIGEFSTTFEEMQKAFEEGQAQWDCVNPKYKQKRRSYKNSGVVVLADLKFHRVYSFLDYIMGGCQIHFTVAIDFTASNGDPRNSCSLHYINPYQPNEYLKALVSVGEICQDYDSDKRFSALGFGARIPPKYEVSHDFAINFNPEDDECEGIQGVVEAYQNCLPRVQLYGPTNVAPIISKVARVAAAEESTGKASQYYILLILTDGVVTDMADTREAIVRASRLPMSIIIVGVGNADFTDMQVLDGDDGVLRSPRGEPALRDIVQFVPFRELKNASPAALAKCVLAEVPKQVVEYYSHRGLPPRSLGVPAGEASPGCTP
UniProt P78368: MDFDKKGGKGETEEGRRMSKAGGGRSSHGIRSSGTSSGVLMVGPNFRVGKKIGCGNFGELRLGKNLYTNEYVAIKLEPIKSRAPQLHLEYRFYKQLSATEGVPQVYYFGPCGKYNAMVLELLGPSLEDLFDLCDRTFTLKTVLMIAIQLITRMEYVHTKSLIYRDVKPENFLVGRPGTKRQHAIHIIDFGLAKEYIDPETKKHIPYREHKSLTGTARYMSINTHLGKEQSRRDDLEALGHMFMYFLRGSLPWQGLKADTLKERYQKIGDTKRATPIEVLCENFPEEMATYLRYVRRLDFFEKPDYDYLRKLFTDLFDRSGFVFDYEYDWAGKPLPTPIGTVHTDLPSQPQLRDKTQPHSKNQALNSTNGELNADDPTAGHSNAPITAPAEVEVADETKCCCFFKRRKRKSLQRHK
UniProt Q5TZA2: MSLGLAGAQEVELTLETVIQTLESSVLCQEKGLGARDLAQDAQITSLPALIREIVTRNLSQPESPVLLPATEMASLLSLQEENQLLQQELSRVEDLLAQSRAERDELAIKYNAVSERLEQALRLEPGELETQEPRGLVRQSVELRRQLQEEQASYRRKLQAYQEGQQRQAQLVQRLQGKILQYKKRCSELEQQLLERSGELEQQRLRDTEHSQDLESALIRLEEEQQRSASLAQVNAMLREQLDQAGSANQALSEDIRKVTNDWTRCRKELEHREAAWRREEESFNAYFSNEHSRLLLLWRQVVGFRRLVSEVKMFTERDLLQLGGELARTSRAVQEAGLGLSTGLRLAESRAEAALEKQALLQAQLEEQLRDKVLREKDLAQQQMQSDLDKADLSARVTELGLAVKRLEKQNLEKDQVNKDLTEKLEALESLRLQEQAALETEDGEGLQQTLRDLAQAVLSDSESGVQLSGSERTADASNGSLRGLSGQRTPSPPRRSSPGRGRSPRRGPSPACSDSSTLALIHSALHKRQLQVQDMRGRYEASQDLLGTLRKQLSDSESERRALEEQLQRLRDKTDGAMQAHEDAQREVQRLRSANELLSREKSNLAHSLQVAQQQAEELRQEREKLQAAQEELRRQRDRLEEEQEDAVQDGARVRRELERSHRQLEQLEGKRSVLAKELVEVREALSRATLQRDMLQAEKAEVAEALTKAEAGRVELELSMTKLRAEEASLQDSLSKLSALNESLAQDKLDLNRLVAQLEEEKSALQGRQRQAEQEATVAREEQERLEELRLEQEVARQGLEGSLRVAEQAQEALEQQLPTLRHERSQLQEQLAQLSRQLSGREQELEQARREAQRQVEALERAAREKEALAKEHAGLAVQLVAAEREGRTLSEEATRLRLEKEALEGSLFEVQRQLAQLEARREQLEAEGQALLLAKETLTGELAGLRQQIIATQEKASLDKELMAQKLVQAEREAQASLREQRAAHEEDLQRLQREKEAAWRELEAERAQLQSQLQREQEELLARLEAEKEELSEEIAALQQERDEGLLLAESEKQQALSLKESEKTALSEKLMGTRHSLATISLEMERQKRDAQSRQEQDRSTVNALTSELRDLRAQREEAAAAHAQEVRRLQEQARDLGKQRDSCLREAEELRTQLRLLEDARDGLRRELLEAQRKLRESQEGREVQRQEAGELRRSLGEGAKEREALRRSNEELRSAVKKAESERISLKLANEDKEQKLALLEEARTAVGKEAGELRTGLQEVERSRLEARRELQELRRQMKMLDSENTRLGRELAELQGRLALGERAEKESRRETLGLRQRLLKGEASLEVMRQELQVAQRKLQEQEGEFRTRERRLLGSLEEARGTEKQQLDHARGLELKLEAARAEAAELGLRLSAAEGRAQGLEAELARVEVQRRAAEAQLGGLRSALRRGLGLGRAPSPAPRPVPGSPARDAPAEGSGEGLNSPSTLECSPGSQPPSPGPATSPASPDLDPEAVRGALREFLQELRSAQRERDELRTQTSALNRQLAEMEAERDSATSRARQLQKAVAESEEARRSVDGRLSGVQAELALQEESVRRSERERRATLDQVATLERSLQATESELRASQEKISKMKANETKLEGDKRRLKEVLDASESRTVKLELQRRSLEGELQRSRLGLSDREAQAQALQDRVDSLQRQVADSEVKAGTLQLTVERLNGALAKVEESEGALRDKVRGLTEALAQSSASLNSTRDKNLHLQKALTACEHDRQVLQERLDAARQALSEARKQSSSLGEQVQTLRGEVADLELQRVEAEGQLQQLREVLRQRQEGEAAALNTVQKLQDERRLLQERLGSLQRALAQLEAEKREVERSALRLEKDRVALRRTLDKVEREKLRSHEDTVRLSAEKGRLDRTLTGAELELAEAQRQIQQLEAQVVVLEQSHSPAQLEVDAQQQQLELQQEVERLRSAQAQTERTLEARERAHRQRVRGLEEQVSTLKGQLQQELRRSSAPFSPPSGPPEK
UniProt Q9NX08, whole entry, looked up: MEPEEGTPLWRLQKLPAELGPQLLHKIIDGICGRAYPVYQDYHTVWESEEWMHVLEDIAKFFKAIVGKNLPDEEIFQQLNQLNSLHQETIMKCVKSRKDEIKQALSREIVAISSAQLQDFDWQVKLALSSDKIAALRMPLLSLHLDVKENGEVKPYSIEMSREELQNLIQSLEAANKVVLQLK
UniProt P09669, whole entry, looked up: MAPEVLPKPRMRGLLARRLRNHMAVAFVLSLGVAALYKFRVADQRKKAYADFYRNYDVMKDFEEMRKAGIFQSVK
UniProt Q9BSW2: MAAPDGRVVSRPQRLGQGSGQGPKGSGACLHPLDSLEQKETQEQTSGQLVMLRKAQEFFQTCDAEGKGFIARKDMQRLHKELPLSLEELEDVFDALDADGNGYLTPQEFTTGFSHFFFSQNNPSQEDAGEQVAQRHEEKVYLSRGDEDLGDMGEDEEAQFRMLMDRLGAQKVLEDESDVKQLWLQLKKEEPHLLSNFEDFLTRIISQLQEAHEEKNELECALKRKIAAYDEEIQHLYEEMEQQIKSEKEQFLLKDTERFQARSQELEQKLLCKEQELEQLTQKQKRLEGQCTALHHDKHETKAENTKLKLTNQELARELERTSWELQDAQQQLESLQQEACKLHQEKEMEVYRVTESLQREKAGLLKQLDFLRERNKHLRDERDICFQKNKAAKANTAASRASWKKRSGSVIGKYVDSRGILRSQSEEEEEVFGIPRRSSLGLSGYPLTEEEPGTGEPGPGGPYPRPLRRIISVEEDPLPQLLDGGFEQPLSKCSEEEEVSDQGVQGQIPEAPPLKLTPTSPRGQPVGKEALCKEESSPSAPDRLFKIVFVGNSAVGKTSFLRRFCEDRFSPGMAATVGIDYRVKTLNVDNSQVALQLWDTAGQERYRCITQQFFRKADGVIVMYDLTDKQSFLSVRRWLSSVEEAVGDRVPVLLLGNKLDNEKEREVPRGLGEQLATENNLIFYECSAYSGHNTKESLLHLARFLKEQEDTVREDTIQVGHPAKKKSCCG
UniProt P53621: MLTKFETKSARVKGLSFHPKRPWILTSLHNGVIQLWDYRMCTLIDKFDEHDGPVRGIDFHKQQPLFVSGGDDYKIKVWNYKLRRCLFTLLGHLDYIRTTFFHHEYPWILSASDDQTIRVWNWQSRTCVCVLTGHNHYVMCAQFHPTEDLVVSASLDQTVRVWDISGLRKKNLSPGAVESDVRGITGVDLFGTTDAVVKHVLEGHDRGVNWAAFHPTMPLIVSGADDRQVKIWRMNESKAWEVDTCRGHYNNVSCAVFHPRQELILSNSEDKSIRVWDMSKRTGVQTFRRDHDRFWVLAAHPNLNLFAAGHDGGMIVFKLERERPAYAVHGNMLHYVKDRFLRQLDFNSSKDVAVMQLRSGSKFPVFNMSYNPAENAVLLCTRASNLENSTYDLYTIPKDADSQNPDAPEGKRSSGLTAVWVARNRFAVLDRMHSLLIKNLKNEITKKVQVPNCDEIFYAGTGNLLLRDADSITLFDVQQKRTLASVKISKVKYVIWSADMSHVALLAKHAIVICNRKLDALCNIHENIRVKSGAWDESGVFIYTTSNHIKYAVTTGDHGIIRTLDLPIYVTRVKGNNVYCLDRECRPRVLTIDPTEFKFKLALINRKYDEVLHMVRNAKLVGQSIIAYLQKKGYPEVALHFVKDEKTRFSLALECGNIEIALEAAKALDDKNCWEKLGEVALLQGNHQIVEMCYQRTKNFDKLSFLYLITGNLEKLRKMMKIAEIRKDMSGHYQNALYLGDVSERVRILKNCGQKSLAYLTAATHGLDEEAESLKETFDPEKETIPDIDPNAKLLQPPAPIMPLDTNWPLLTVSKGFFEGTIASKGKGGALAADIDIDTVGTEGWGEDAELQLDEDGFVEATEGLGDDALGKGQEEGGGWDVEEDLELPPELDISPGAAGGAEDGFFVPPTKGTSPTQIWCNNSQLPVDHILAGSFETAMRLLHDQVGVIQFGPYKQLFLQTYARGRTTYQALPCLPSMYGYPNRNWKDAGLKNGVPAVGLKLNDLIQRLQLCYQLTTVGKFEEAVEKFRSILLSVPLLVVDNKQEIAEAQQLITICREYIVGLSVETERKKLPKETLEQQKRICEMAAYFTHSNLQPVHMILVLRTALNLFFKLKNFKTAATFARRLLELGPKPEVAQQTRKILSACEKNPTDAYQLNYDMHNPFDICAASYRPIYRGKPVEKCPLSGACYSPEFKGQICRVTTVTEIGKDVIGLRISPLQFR

Compound: c1cn2cc(-c3ccc4cn[nH]c4c3)nc(Nc3ccc(N4CCOCC4)cc3)c2n1 [entospletinib]
Assay: log2 fold change, soluble protein after heating vs DMSO (PISA); higher = thermal stabilisation; K562 cells, 10 uM, 30 min; active = over 0.2 and 3.5 SD of the protein, either way, in both replicates (recomputed)
Method in brief: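 Soluble protein was quantified by TMTpro 16plex LC-MS/MS after channel sums were equalised. It was obtained as the supernatant after 21,000xg for 90 min from pooled aliquots of K562 cells (2×10^6 cells/mL, 10 μM compound, 30 min) heated for 3 min across 48°C-58°C and extracted in PBS with 0.5% NP-40 at 4°C. Thermal stability values are relative to control samples and come from duplicates. They are given as log2 fold changes.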

| Target | log2 fold change |
| --- | --- |
| CORO7 isoform 3 (UniProt P57737) | inactive: -0.009 |
| CPVL (UniProt Q9H3G5) | inactive: -0.16 |
| COX10 (UniProt Q12887) | inactive: -0.056 |
| COPB2 (UniProt P35606) | inactive: 0.007 |
| CRIP2 isoform 2 (UniProt P52943) | inactive: 0.014 |
| CRELD2 isoform 5 (UniProt Q6UXH1) | inactive: 0.068 |
| COQ5 (UniProt Q5HYK3) | inactive: 0.074 |
| COLGALT2 (UniProt Q8IYK4) | inactive: 0.016 |
| CRCP (UniProt O75575) | inactive: 0.189 |
| COMMD10 (UniProt Q9Y6G5) | inactive: -0.037 |
| CPNE7 (UniProt Q9UBL6) | inactive: -0.144 |
| COPS7B (UniProt Q9H9Q2) | inactive: 0.032 |
| CSNK1G2 (UniProt P78368) | inactive: 0.021 |
| COL6A1 (UniProt P12109) | inactive: 0.197 |
| CROCC (UniProt Q5TZA2) | inactive: -0.005 |
| CRIPT (UniProt Q9P021) | inactive: 0.147 |
| COMMD8 (UniProt Q9NX08) | inactive: 0.042 |
| CSNK1G3 (UniProt Q9Y6M4) | inactive: 0.099 |
| COMP (UniProt P49747) | inactive: 0.292 |
| COPS7A (UniProt Q9UBW8) | inactive: 0.025 |
| CORO1B (UniProt Q9BR76) | inactive: -0.005 |
| COX6C (UniProt P09669) | inactive: 0.035 |
| COPRS (UniProt Q9NQ92) | inactive: 0.043 |
| CRACR2A isoform 2 (UniProt Q9BSW2) | inactive: 0.025 |
| COX19 (UniProt Q49B96) | inactive: -0.016 |
| COMMD5 (UniProt Q9GZQ3) | inactive: -0.052 |
| COPA isoform 2 (UniProt P53621) | inactive: -0.007 |
| CSNK1G1 (UniProt Q9HCP0) | inactive: 0.134 |

Laid out differently: entries from further up.
Target	log2 fold change
CPVL (UniProt Q9H3G5)	inactive: -0.16
CSNK1G2 (UniProt P78368)	inactive: 0.021
COMMD8 (UniProt Q9NX08)	inactive: 0.042
COPS7A (UniProt Q9UBW8)	inactive: 0.025
COX19 (UniProt Q49B96)	inactive: -0.016
